About 13,000 (3.2%) of roughly 400,000 compounds were called active. Inconclusive means that the source gave no clear call. Such entries were picked first, then a sample of the others. Calls follow the shape of the dose curve; as a rule, active = well fitted cell-killing curve with a large enough effect; inconclusive = small, poorly fitted or top-dose-only effect, or effect the other way; inactive = flat fitted curve, though single readings scatter. Potencies of inconclusive entries are doubtful fits and often do not repeat.
Assay: qHTS assay for MDR1-selective chemotherapeutics: Primary screen using the drug-selected MDR subline cells KB-V1; also: nearly all actives have a fitted effect of over 60% in size
Conditions: KB-V1 MDR cells viability, CellTiter-Glo, 72 h; activity change, negative = cytotoxicity: at 46.1 µM (top of the series)
In short: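 Potencies derive from concentration-effect curves fitted to normalized luminescence (CellTiter-Glo) of KB-V1 cells treated for 72 h at 37 degrees C in phenol-red-free DMEM containing 10% FBS.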
% is scaled to controls: 0 for no effect and ±100 for the full control effect; potency is read from the fitted curve at half-maximal effect.

Compound	Potency	activity change, negative = cytotoxicity
CCCc1cc(=O)n2[nH]c(NC(=O)c3ccc(C(C)(C)C)cc3)nc2n1	inactive	
O=C(NCCc1ccc(Cl)cc1)Nc1ccc(F)cc1	inactive	
COc1ccc(C(CC(=O)c2ccc(C)cc2)C(C#N)C#N)cc1OC (stereo not drawn)	inconclusive: 20.6 µM [cytotoxic, single point]	
CN(C(=O)CSc1nnc(-c2ccccc2F)n1N)C1CCCCC1	inconclusive: 18.4 µM [cytotoxic, single point]	
CN(CC(=O)Nc1cccc(F)c1)C(=O)c1cccc2ccccc12	active: 18.4 µM	
CCN(CC)c1ccc(C(=S)NC2CCCCC2)cc1	inconclusive: 18.4 µM [cytotoxic, single point]	
O=C(N(Cc1ccccc1)c1ccccn1)C12CC3CC(CC(C3)C1)C2	inconclusive: 20.6 µM [cytotoxic, single point]	
O=C(/C=C/c1ccc(F)cc1)NC(=S)NNC(=O)c1cccnc1	inconclusive: 18.4 µM [cytotoxic, partial curve]	
CCn1c(=O)c2cc(C(=O)Nc3cc(OC)c(OC)c(OC)c3)sc2c2ccccc21	inconclusive: 2.91 µM [cytotoxic, full curve]	
Cc1nc2ccccc2n1CC(O)COC1CCCCC1 (stereo not drawn)	active: 16.4 µM	
Cc1cccc(C2C3=C(Nc4[nH]n(-c5ccccc5)c(=O)c42)c2ccccc2C3=O)c1 (stereo not drawn)	inconclusive: 6.51 µM [rising, single point]	
CCc1noc(C)c1C(=O)NC1CCCc2c1cnn2-c1ccc(C(C)(C)C)cc1 (stereo not drawn)	inactive	
O=C(c1cccc(S(=O)(=O)N2CCOCC2)c1)N(CCc1ccccc1)Cc1ccccc1	inactive	
O=S1(=O)CCN(c2ccccc2CC(c2c[nH]c3ccccc23)c2c[nH]c3ccccc23)CC1	inconclusive: 20.6 µM [cytotoxic, single point]	
CC(C)NCCCCOc1ccc(Br)cc1Cl	inactive	
Cc1ccc2nc(SC(C)C(=O)Nc3cccc([N+](=O)[O-])c3)[nH]c2c1 (stereo not drawn)	active: 4.11 µM	
COc1cnc(-c2ccccn2)nc1Oc1ccccc1	inconclusive: 2.31 µM [cytotoxic, partial curve, poor fit]	
COc1ccc(-c2nnc(SCc3cc(=O)c4cc(C)cc(C)c4[nH]3)n2C)cc1	inconclusive: 6.51 µM [cytotoxic, full curve]	
Clc1ccsc1-c1csc(-c2cccnc2)n1	inconclusive: 20.6 µM [cytotoxic, single point]	
O=CNc1cc2c(cc1Br)-c1ccccc1C2O (stereo not drawn)	inconclusive: 20.6 µM [cytotoxic, single point]	
N/C(CSc1ccc(Cl)cc1)=N\NC(=O)c1ccncc1	inconclusive: 25.9 µM [cytotoxic, single point]	
Cc1nonc1OCCNc1ccc([N+](=O)[O-])cc1[N+](=O)[O-]	inconclusive: 29.1 µM [cytotoxic, single point]	
COc1cc(/C=N/NC(=O)c2cc(C)oc2C)ccc1O	inconclusive: 29.1 µM [cytotoxic, single point]	

Part of the list above in order of heavy-atom count, ascending.
Compound	Potency	activity change, negative = cytotoxicity
O=CNc1cc2c(cc1Br)-c1ccccc1C2O (stereo not drawn)	inconclusive: 20.6 µM [cytotoxic, single point]	
COc1cnc(-c2ccccn2)nc1Oc1ccccc1	inconclusive: 2.31 µM [cytotoxic, partial curve, poor fit]	
CCCc1cc(=O)n2[nH]c(NC(=O)c3ccc(C(C)(C)C)cc3)nc2n1	inactive	

(list continues)

Compound	Potency	activity change, negative = cytotoxicity
COC(=O)[C@]12CCCCC=C1N(CCc1ccc(OC)c(OC)c1)C(=O)[C@H](CC(=O)N1CCC(c3ccccc3)CC1)C2	inconclusive: 10.3 µM [cytotoxic, partial curve, poor fit]	
Cc1cc(Br)ccc1NC(=O)CN(C)C(=O)c1cc([N+](=O)[O-])ccc1N1CCOCC1	inconclusive: 11.6 µM [cytotoxic, partial curve, poor fit]	
CCN=C1S/C(=C/c2ccc(-c3ccc(F)cc3)o2)C(=O)N1CC	inactive	
Cc1c(C(=O)NCc2cccnc2)oc2ccccc12	active: 16.4 µM	
CC(=O)c1cccc(NC(=O)c2nc3ccccc3n(C)c2=O)c1	inconclusive: 25.9 µM [cytotoxic, single point]	
CCN(CC)C(=O)CSc1nc2ccccc2c(=O)n1OC(C)C	active: 2.59 µM	
COc1cccc(CNC(=O)c2ccc3nc(-c4ccc(F)cc4)c(-c4ccc(F)cc4)nc3c2)c1	inactive	
C/C(=N/OCC(=O)NCCCCCCNC(=O)CO/N=C(/C)c1cccs1)c1cccs1	inconclusive: 29.1 µM [cytotoxic, single point]	
Cc1c(C(=O)n2cnc3ccccc32)cccc1[N+](=O)[O-]	inconclusive: 11.6 µM [rising, partial curve, poor fit]	
O=C(Nc1nnc(-c2ccc(F)cc2)o1)C1CCCN1S(=O)(=O)c1cccs1 (stereo not drawn)	inconclusive: 16.4 µM [cytotoxic, partial curve, poor fit]	
Brc1ccc2[nH]c3c(NCc4ccccn4)ncnc3c2c1	inconclusive: 29.1 µM [cytotoxic, single point]	
CC(C)OCCCN(C)C1CCN(S(=O)(=O)c2ccc(-c3cc(C(F)(F)F)no3)s2)CC1	active: 9.2 µM	
COc1ccc(N2C(=O)C3CCCN3C2=S)cc1 (stereo not drawn)	inactive	
O=C(NCC1CCCO1)c1cc(-c2ccc(F)cc2)no1 (stereo not drawn)	inconclusive: 25.9 µM [cytotoxic, single point]	
Cc1nn2cc(-c3cccc(Cl)c3)cnc2c1Cl	active: 5.8 µM	
CC(=C/c1ccccc1)/C=N/N1CCN(Cc2ccc(C)cc2)CC1		inconclusive: 23.8%
CCCCn1c(CCl)nc2cc(S(=O)(=O)N3CCOCC3)ccc21	inconclusive: 23.1 µM [cytotoxic, single point]	
O=C(CN(c1cccc(Cl)c1)S(=O)(=O)c1ccccc1)NN=C1CCCC1	inconclusive: 16.4 µM [rising, single point]	
Nc1ccc(S(=O)(=O)Nc2nccc(/C=C/c3cccc(Br)c3)n2)cc1	inconclusive: 16.4 µM [cytotoxic, single point]	
CNC(=S)NNc1nncc2ccccc12	inactive	
O=C1CC(=C(c2ccccc2)c2ccccc2)C(=O)N1CCCCN1CCN(c2cccc(Cl)c2)CC1	inconclusive: 4.11 µM [cytotoxic, full curve]	
CSCCC(/C(O)=C(\C#N)c1nc2ccccc2[nH]1)N1C(=O)c2ccccc2C1=O (stereo not drawn)	inconclusive: 20.6 µM [cytotoxic, single point]	
C=CCn1c(SCn2nnc3ccccc3c2=O)nnc1-c1ccc(Cl)cc1	inconclusive: 23.1 µM [cytotoxic, single point]	

Compound	Potency	activity change, negative = cytotoxicity
COc1ccc(CCN2C(=O)NC(NC(=O)CC(C)C)(C(F)(F)F)C2=O)cc1OC (stereo not drawn)	inconclusive: 20.6 µM [cytotoxic, single point]	
Cc1ccc(S(=O)(=O)N2CCN(CC(=O)Nc3ccc([N+](=O)[O-])cc3)CC2)cc1C	active: 18.4 µM	
CCN1CCN(CCCNC(=O)c2cc3c(s2)-c2ccccc2OC3)CC1	inconclusive: 10.3 µM [cytotoxic, partial curve, poor fit]	
C=CCn1c(SCc2c(C)noc2C)nc2sc3c(c2c1=O)CCCCC3	inconclusive: 20.6 µM [cytotoxic, single point]	
O=C(c1ccccc1)C(CCC(CN1CCOCC1)C(=O)c1ccccc1)CN1CCOCC1 (stereo not drawn)	active: 5.8 µM	
COc1ccc(CNC(=O)C[C@H]2C[C@H](C(=O)N3CCCCC3)[C@@]3(C)c4[nH]c5cc(-c6ccco6)ccc5c4CCN3C2=O)cc1OC	inconclusive: 32.6 µM [cytotoxic, single point]	
CCOC(=O)N1CCN(C(=O)CCC(=O)c2ccc(OCC)cc2)CC1	inconclusive: 18.4 µM [cytotoxic, partial curve]	
CCOC(=O)c1c(C)[nH]c(C(=O)N/N=C/c2cccc(OC)c2)c1C	inconclusive: 29.1 µM [cytotoxic, single point]	
COc1cc(/C=N/NC(=O)COc2ccc(-n3cnnn3)cc2)ccc1OCC(N)=O		inconclusive: 15.1%
CCOP(=O)(OCC)c1nc(-c2ccc(Cl)cc2)oc1NCc1ccccc1	inconclusive: 6.51 µM [cytotoxic, partial curve]	
CCn1c(-c2cc(Br)cc(OC)c2O)nc2cc(S(=O)(=O)N(C)C)ccc21	inconclusive: 29.1 µM [cytotoxic, single point]	
CCNS(=O)(=O)c1ccc(CCC(=O)N2CCN(c3ccccc3)CC2)cc1	inconclusive: 29.1 µM [cytotoxic, single point]	
Cc1ccc(C)c(S(=O)(=O)N2CCCC2CNC(=O)C(=O)NCCc2ccccc2)c1 (stereo not drawn)	inconclusive: 16.4 µM [cytotoxic, partial curve, poor fit]	
Cc1ccc(S(=O)(=O)N2CCCCC2)cc1NC(=O)CCOc1ccccc1	inconclusive: 18.4 µM [cytotoxic, partial curve]	
O=C(Nc1cccc2ccccc12)c1ccc([N+](=O)[O-])o1	inconclusive: 29.1 µM [cytotoxic, single point]	
COc1ccc(CC(=O)N2N=C(C)CC2(O)c2cccnc2)cc1 (stereo not drawn)	inactive	
CCOC(=O)N1CCN(c2nc(C)cc(C(F)(F)F)n2)CC1	inactive	
CN(CCc1ccccc1)C(=O)c1cccc(NC(=O)Cc2cccc(NC(=O)C3CCN(C(=O)C4CCC4)CC3)c2)c1	inactive	
Cc1ccc(S(=O)(=O)N2CCN(C(=O)c3cc4c(C)nn(-c5ccccc5)c4s3)CC2)cc1	inactive	
O=C(CCl)c1ccc(Cc2ncc(C(F)(F)F)cc2Cl)s1	inconclusive: 18.4 µM [cytotoxic, single point]	
CNC(=O)c1c(NC(=O)c2ccco2)sc(C)c1C	inconclusive: 20.6 µM [cytotoxic, partial curve]	
Cn1nnnc1Sc1ncnc2scc(-c3ccc4c(c3)OCO4)c12	inactive	

Source: PubChem BioAssay AID1347076 (National Center for Advancing Translational Sciences (NCATS), 2019)
